ChEMBL document CHEMBL1157454, “Citral derived amides as potent bacterial NorA efflux pump inhibitors” (2008)
In brackets after ≈: the same amount, converted by molar mass.

Tested on: Staphylococcus aureus
Assay: microbe, parasite or virus in culture
Conditions: 1199B, 18 h

**Q.** For O=C(O)c1cn(C2CC2)c2cc(N3CCNCC3)c(F)cc2c1=O [CIPROFLOXACIN], which MIC is on record?
**A.** Its MIC is 8 mg/L (≈ 24.1 µM).
